The source of these data is the supplement of paper PMC7858590.

Several values for one entry are separate records, joined by “and”; a condition that tells them apart may be missing. Identical values can stand only once. ± gives the standard deviation of the averaged measurements. Whole data set: some 3,800 compounds, median “cell shape (eccentricity) Z-score vs DMSO control” near 1.1, cut for the lowest 2% near -4.7. This is one part of the list.

The test system of this assay is human monocyte-derived macrophages (M0). Kind of assay: cell shape (eccentricity) Z-score vs DMSO control; higher = more elongated, M2-like morphology. The settings on record: 20 µM; 24 h; macrophage state: M0 (M-CSF).
Regarding `CC(C)NCC(O)COc1cccc2[nH]ccc12` (stereo unspecified), the “cell shape (Z-score)” value was 3.29.
Next, `N#CC(Cc1ccc(O)cc1)c1ccc(O)cc1` (stereo unspecified): 4.76.
Then `CN(Cc1cc(Br)cc(Br)c1N)C1CCCCC1`, with 2.37.
Take `C[C@]12C=CC(=O)C=C1CCC1C2[C@@H](O)C[C@@]2(C)C1CC[C@]2(O)C(=O)CO` (stereo partly specified): the “cell shape (Z-score)” value was 0.502.
Then `O=c1c(O[C@@H]2O[C@H](CO)[C@H](O)[C@H](O)[C@H]2O)c(-c2cc(O)c(O)c(O)c2)oc2cc(O)cc(O)c12`, with 2.9; and `Nc1ncnc2c1ncn2C1CCCO1` (stereo unspecified), with 0.526.
Then `CC(=O)Nc1ccc(OCC(O)CNC(C)C)cc1` (stereo unspecified), with 0.523; and `COc1cc([C@@H]2Oc3c(O)cc([C@H]4Oc5cc(O)cc(O)c5C(=O)[C@@H]4O)cc3[C@H]2CO)ccc1O`, with -2.03; and `Cc1cc(O)c2c(c1)C(=O)C1=C(C2=O)C(O)C(O)C(O)C1O` (stereo unspecified), with -13.9.
Next, `CC(C)CCCC(C)[C@H]1CCC2C3C(=O)C=C4C[C@@H](O)CC[C@]4(C)C3CC[C@@]21C` (stereo partly specified): 0.162.
With `CCC1(C)C(=O)C=C2C(=COC(C)=C2C)C1O` (stereo unspecified), the “cell shape (Z-score)” value was determined as 0.48 ± 1.3.
Next, `CCCCCCCCCCCC1C(=O)C(=O)CC(=O)C1=O`: -0.419; `CC(=O)O[C@@H]1c2c(ccc3ccc(=O)oc23)OC(C)(C)[C@@H]1OC(=O)CC(C)C`: 0.0271; `COC(=O)[C@@]1(C)CC[C@]2(C(=O)O[C@@H]3O[C@H](CO)[C@@H](O)[C@H](O)[C@H]3O)CC[C@]3(C)C(=CCC4[C@@]5(C)C[C@H](O)[C@H](O[C@@H]6OC[C@@H](O)[C@H](O)[C@H]6O)[C@@](C)(CO)C5CC[C@]43C)[C@@H]2C1` (stereo partly specified): 1.93 ± 2.4.
Then `Cn1cncc1[C@@](N)(c1ccc(Cl)cc1)c1ccc2c(c1)c(-c1cccc(Cl)c1)cc(=O)n2C`, with 5.12.
Next, `COc1cc([C@@H]2c3cc4c(cc3C(O[C@@H]3O[C@@H]5CO[C@@H](c6cccs6)OC5[C@H](O)[C@H]3O)C3COC(=O)[C@@H]32)OCO4)cc(OC)c1O` (stereo partly specified): 4.28; `COc1ccc2c(c1)c(CC(=O)O)c(C)n2C(=O)c1ccc(Cl)cc1`: 3.43.
Regarding `C/C=C1/CN2CCC1C(CO)(C(=O)OC)c1[nH]c3ccccc3c1C2` (stereo unspecified), the “cell shape (Z-score)” value is -0.866.
Then `CCCN(CC1CC1)c1nc(C)nc(Nc2c(Cl)cc(Cl)cc2Cl)c1Cl`, with 1.02.
Then `COc1cc2oc(=O)ccc2cc1CC(O)C(C)(C)O` (stereo unspecified), with 2.48.
Regarding `CC(C)(C)NCC(O)COc1nsnc1N1CCOCC1` (stereo unspecified), the “cell shape (Z-score)” value came to 1.68.
Next, `CCC1(C)CC(=O)NC1=O` (stereo unspecified): 9.26.
Then `CC(=O)Nc1ccc(OC(C)=O)cc1`, with -0.926.
Then `O=C1OC2(c3ccc(O)cc3Oc3cc(O)ccc32)c2ccccc21`, with 2.01; and `Cc1nccn1C[C@@H]1CCc2c(c3ccccc3n2C)C1=O`, with 0.13.
For `CC(NCCc1ccc(O)cc1)C(O)c1ccc(O)cc1` (stereo unspecified), the “cell shape (Z-score)” value was determined as 3.05.
On to `O=C(O)CN1C(=O)c2cccc3cccc(c23)C1=O`, for which the “cell shape (Z-score)” value is -6.86.
Next, `CC1(C)CC[C@]2(C(=O)OC3OC(CO)C(OC4OC(CO)C(O)C(O)C4O)C(O)C3O)CC[C@]3(C)C(=CCC4[C@@]5(C)CC[C@H](OC6OC(C(=O)O)C(O)C(O)C6O)C(CO)(CO)C5CC[C@]43C)[C@@H]2C1` (stereo partly specified): 1.87 ± 2.7; `C=C[C@@]1(C)CCC2=C([C@H]1OC(C)=O)[C@H](OC(C)=O)CC1[C@](C)(C(=O)OC)CC[C@H](OC(C)=O)[C@]21C` (stereo partly specified): 1.6.
Then `COc1c(O)cc2c(=O)oc3c(OC)c(O[C@@H]4OC[C@@H](O)[C@H](O)[C@H]4O)cc4c(=O)oc1c2c34`, with 0.649 ± 1.7; and `CC/C=C/c1ccc(C)cc1CCCCCC(=O)O`, with 3.58.
Then `CC[C@@H](CO)Nc1nc(NCc2ccccc2)c2ncn(C(C)C)c2n1`, with 2.91; and `CC(C)C[C@](CC(=O)OCc1ccc(O[C@@H]2O[C@H](CO)[C@@H](O)[C@H](O)[C@H]2O)cc1)(O[C@@H]1O[C@H](CO)[C@@H](O)[C@H](O)[C@H]1O)C(=O)OCc1ccc(O[C@@H]2O[C@H](CO)[C@@H](O)[C@H](O)[C@H]2O)cc1`, with 0.0281; and `O=C1c2c(O)ccc(O)c2C(=O)c2c(NCCNCCO)ccc(NCCNCCO)c21`, with -3.95.
As for `CCn1cc(C(=O)O)c(=O)c2cc(F)c(N3CCNCC3)nc21`, the “cell shape (Z-score)” value is -1.1.
Then `CCOC(=O)CC(=O)N1CCSC1COc1ccccc1OC` (stereo unspecified), with 0.257; and `COC1=CC(=O)O/C1=C(/OC)[C@@H]1O[C@H]1c1ccccc1`, with 1.67.
Next, `COc1cc2c(cc1OC)-c1c/c(=N\c3c(C)cc(C)cc3C)n(C)c(=O)n1CC2`: -0.597; `O=C1CN(/N=C/c2ccc(-c3ccc([N+](=O)[O-])cc3)o2)C(=O)N1`: 2.87.
Then `COc1cc(O)c2c(=O)c(OC)c(-c3ccc(OC)c(OC)c3)oc2c1`, with -4.42 and -3.16; and `CCCn1c(=O)c2nc[nH]c2n(-c2ccc(Cl)cc2)c1=O`, with 0.799; and `Nc1nc(Nc2ccc3c(c2)CC[C@@H](N2CCCC2)CC3)nn1-c1cc2c(nn1)-c1ccccc1CCC2`, with 11.4.
For `NS(=O)(=O)c1cc2c(cc1C(F)(F)F)NCNS2(=O)=O`, the “cell shape (Z-score)” value was 1.99.
For `CC1(C)CC[C@]2(C(=O)O)CC[C@]3(C)C(=CCC4[C@@]5(C)C[C@@H](O)[C@H](O)[C@](C)(CO)C5CC[C@]43C)[C@@H]2[C@@H]1O` (stereo partly specified), the “cell shape (Z-score)” value was 0.0107.
Then `C[C@@H]1O[C@@H](O[C@H]2CC[C@@]3(C)C(CC[C@]4(C)C3CC=C3C5CC(C)(C)CC[C@]5(C(=O)O[C@@H]5O[C@H](CO)[C@@H](O)[C@H](O)[C@H]5O)CC[C@]34C(=O)O)C2(C)C)[C@H](O)[C@H](O)[C@H]1O` (stereo partly specified), with -0.584; and `C/C=C(\C)C(=O)O[C@H]1C=CC(=O)O[C@H]1/C=C/[C@H](O)[C@H](C)O`, with -0.251.
Then `CCCn1c(=O)c2[nH]c(-c3ccc(OCC(=O)Nc4ccc(C#N)cc4)cc3)nc2n(CCC)c1=O`, with 2.15; and `COc1cc(O)c(CC=C(C)C)cc1C(=O)/C=C/c1ccc(O)c(CC=C(C)C)c1`, with 1.1.
Then `COc1cc(-c2ccc(/N=N/c3ccc4c(S(=O)(=O)O)cc(S(=O)(=O)O)c(N)c4c3O)c(OC)c2)ccc1/N=N/c1ccc2c(S(=O)(=O)O)cc(S(=O)(=O)O)c(N)c2c1O`, with 1.91; and `CC(C)NC(=O)Nc1ccc2c(c1)C(=O)N([C@H](C)CO)C[C@@H](C)[C@H](CN(C)S(=O)(=O)c1ccc(Cl)cc1)O2`, with 0.985; and `CCC[C@@H](N[C@@H](C)C(=O)N1[C@@H](C(=O)O)C[C@@H]2CCCC[C@@H]21)C(=O)OCC`, with -2.33.
With `COC(=O)C1=COC(O[C@@H]2O[C@H](CO)[C@@H](O)[C@H](O)[C@H]2O)[C@H]2[C@@H]1[C@H](OC(=O)CCc1ccc(O)cc1)C[C@]2(C)O` (stereo partly specified), the “cell shape (Z-score)” value is -0.0202 ± 0.73.
Then `COC(=O)Cc1cccn1C`, with 0.68; and `O=C(NCCCCCCNC(=O)ON=C1CCCCC1)ON=C1CCCCC1`, with 0.0221; and `N=C(N)NC(=N)Nc1cccc(Cl)c1`, with 3.22.
Then `O=C1CCC=CC1(O)C(=O)OCc1cccc(O)c1OC1OC(CO)C(O)C(O)C1O` (stereo unspecified), with 1.92; and `Cc1nc2ccccn2c(=O)c1CCN1CCC(C(=O)c2ccc(F)cc2)CC1`, with 2.15.
Next, `COc1nccnc1NS(=O)(=O)c1ccc(NC(=O)/C=C/c2ccc([N+](=O)[O-])s2)cc1`: 6.12; `O=c1c2ccccc2[nH]c(=S)n1CCN1CCC(=C(c2ccc(F)cc2)c2ccc(F)cc2)CC1`: 1.1.
In the case of `CC1(C)C(=O)C=CC2(C)C1CC(O)C1(C)C3=CCC(c4ccoc4)C3(C)CCC21` (stereo unspecified), the “cell shape (Z-score)” value stood at 0.444.
Then `CCCCCC1OC2=C(C(=O)N(OC)C2CSCC(O)C(=O)O)C(O)C1(C)O` (stereo unspecified), with 1.51; and `O=C(/C=C/c1ccccc1)c1ccc(O)cc1`, with 9.91; and `COc1ccc(NC(=O)Nc2ccc3c(c2)C(=O)N([C@@H](C)CO)C[C@H](C)[C@H](CN(C)Cc2ccc4c(c2)OCO4)O3)cc1`, with 3.81.
Next, `CO[C@@H]1CC(OC2CCC3(C)C(CCC45CCC(C6=CC(=O)OC6)C(C)(CCC43)C5=O)C2)O[C@H](C)[C@@H]1O[C@@H]1O[C@H](CO[C@@H]2O[C@H](CO)[C@@H](O)[C@H](O)[C@H]2O)[C@@H](O)[C@H](O)[C@H]1O` (stereo partly specified): 1.71; `COC(=O)C1=CO[C@@H](O[C@@H]2O[C@H](CO)[C@@H](O)[C@H](O)[C@H]2O)[C@@H]2[C@@H]3CN4CCc5c([nH]c6ccccc56)[C@]4(C[C@H]12)O3`: -1.89.
Next, `CC(=O)c1cc(C)c(O)c(COC2OC(CO)C(O)C(O)C2O)c1O` (stereo unspecified): 0.904 ± 1.4; `CN(C)CCOC(=O)C(c1ccccc1)C1(O)CCCC1` (stereo unspecified): -0.539; `COC(=O)Cc1c(CCC(=O)O)oc2cc(C)cc(O)c2c1=O`: 1.09.
Consider `C=C1C(=O)O[C@@H]2C3C(=C(C)[C@@H](O)[C@@H](OC(=O)/C(=C/C)COC(C)=O)[C@@H]12)C(=O)[C@H]1O[C@@]31C` (stereo partly specified), for which the “cell shape (Z-score)” value was -0.66.
For the molecule `C=CC(C)(O)CC[C@H]1C(=C)CCC2[C@](C)(C(=O)O)CCC[C@@]21C` (stereo partly specified), the “cell shape (Z-score)” value was determined as 1.88.
Then `CC(=O)OC[C@]12[C@@H](OC(C)=O)C[C@@H]3[C@@H](OC(=O)c4ccccc4)[C@]1(OC3(C)C)[C@H](C)C[C@H](OC(=O)c1ccccc1)[C@@H]2OC(C)=O`, with 2.48.
As for `COC(=O)c1cc2cc(O)c(-c3c(O)cc4cc(C(=O)OC)oc(=O)c4c3O)c(O)c2c(=O)o1`, the “cell shape (Z-score)” value is -2.17.
Then `OCC(CO)N[C@H]1C[C@](O)(CO)[C@@H](O)[C@H](O)[C@H]1O`, with 2.43.
Then `COC(=O)C[C@H]1C(C)(C)C(=O)[C@@H]2CC3=C(CC[C@]4(C)C3=CC(=O)O[C@H]4c3ccoc3)[C@@]1(C)C2=O`, with 2.15.
Next, `Cc1c(Cn2c(C)nc3c(C(=O)O)cc(N4CCOCC4)cc32)cccc1C(F)(F)F`: 1.7; `NC1(c2ccc(-c3nc4ccn5c(=O)[nH]nc5c4cc3-c3ccccc3)cc2)CCC1`: 1.08; `C[C@@](Cc1ccc(O)c(O)c1)(NN)C(=O)O`: 1.55.
As to `OC(CCN1CCCCC1)(c1ccccc1)c1ccccc1`, the “cell shape (Z-score)” value stood at 0.635.
Next, `Clc1ccc2c(c1)C(N1CCNCC1)=Nc1ccccc1O2`: 0.271; `Cc1c(C(=O)NN2CCOCC2)nn(-c2ccc(Cl)cc2Cl)c1-c1ccc(I)cc1`: -0.191.
Then `CC(=O)O[C@@H]1c2c(ccc3ccc(=O)oc23)OC(C)(C)[C@@H]1OC(=O)C=C(C)C`, with -0.291 ± 0.17.
